Test results from patent US7998954B2, “Pyrimidodiazepinone derivative” (Kyowa Hakko Kirin Co., Ltd., priority 2007, dated 2011).
Some results were stated once for a whole list of compounds, not compound by compound. At least one structure is not confirmed: it was looked up by name or label, or the drawing left a doubt.

System: α2δ protein
Experiment: α2δ protein binding experiment ([3H]-gabapentin binding inhibition, rat cerebral cortex membrane fraction)
Conditions: 0.1 μmol/L test compound, 20 nmol/L [3H]-Gabapentin

| Structure (SMILES) | inhibitory activity ([3H]-Gabapentin binding inhibition) [%] |
| --- | --- |
| CCC1=NN(c2cccc(N3C[C@@H]4CCCN4c4nc(NC)ncc4C3=O)c2)CO1 [Compound 52, (S)-5-[3-(5-Ethyl-1,3,4-oxadiazol-3-yl)phenyl]-9-methylamino-1,2,3,3a,4,5-hexahydro-5,8,10,10b-tetraazabenzo[e]azulen-6-one] | ≥ 50 |
| CNc1ncc2c(n1)N1CCC[C@H]1CN(c1cccc(-c3nnc(C)o3)c1)C2=O [Compound 53, (S)-5-[3-(5-Methyl-1,3,4-oxadiazol-2-yl)phenyl]-9-methylamino-1,2,3,3a,4,5-hexahydro-5,8,10,10b-tetraazabenzo[e]azulen-6-one] | ≥ 50 |
| CCNc1ncc2c(n1)N1CCC[C@H]1CN(c1cccc(-c3nnc(C4CC4)o3)c1)C2=O [Compound 55, (S)-5-[3-(5-Cyclopropyl-1,3,4-oxadiazol-2-yl)phenyl]-9-ethylamino-1,2,3,3a,4,5-hexahydro-5,8,10,10b-tetraazabenzo[e]azulen-6-one] | ≥ 50 |
| CCNc1ncc2c(n1)N1CCC[C@H]1CN(c1cccc(-c3nnco3)c1)C2=O [Compound 56, (S)-9-Ethylamino-5-[3-(1,3,4-oxadiazol-2-yl)phenyl]-1,2,3,3a,4,5-hexahydro-5,8,10,10b-tetraazabenzo[e]azulen-6-one] | ≥ 50 |
| CNc1ncc2c(n1)N1CCC[C@H]1CN(c1cccc(-c3nnc(COC)o3)c1)C2=O [Compound 58, (S)-5-[3-(5-Methoxymethyl-1,3,4-oxadiazol-2-yl)phenyl]-9-methylamino-1,2,3,3a,4,5-hexahydro-5,8,10,10b-tetraazabenzo[e]azulen-6-one] | ≥ 50 |
| CCNC(=O)c1nnc(-c2cccc(N3C[C@@H]4CCCN4c4nc(NCC)ncc4C3=O)c2)o1 [Compound 59, (S)—N-Ethyl 5-[3-(9-Ethylamino-6-oxo-2,3,3a,4-tetrahydro-1H,6H-5,8,10,10b-tetraazabenzo[e]azulen-5-yl)phenyl]-1,3,4-oxadiazole-2-carboxamide] | ≥ 50 |
| CNC(=O)c1nnc(-c2cccc(N3C[C@@H]4CCCN4c4nc(NC)ncc4C3=O)c2)o1 [Compound 60, (S)—N-Methyl 5-[3-(9-Methylamino-6-oxo-2,3,3a,4-tetrahydro-1H,6H-5,8,10,10b-tetraazabenzo[e]azulen-5-yl)phenyl]-1,3,4-oxadiazole-2-carboxamide] | ≥ 50 |
| CNc1ncc2c(n1)N1CCC[C@H]1CN(c1cccc(-c3nnc(C(=O)N(C)C)o3)c1)C2=O [Compound 61, (S)—N,N-Dimethyl 5-[3-(9-Methylamino-6-oxo-2,3,3a,4-tetrahydro-1H,6H-5,8,10,10b-tetraazabenzo[e]azulen-5-yl)phenyl]-1,3,4-oxadiazole-2-carboxamide] | ≥ 50 |
| CCNc1ncc2c(n1)N1CCC[C@H]1CN(c1cccc(-c3nnc([C@H](C)O)o3)c1)C2=O [Compound 62] | ≥ 50 |
| CCNc1ncc2c(n1)N1CCC[C@H]1CN(c1cccc(-c3nnc(NCC)o3)c1)C2=O [Compound 63, (S)-9-Ethylamino-5-[3-(5-ethylamino-1,3,4-oxadiazol-2-yl)phenyl]-1,2,3,3a,4,5-hexahydro-5,8,10,10b-tetraazabenzo[e]azulen-6-one] | ≥ 50 |
| CCNc1nnc(-c2cccc(N3C[C@@H]4CCCN4c4nc(NC)ncc4C3=O)c2)o1 [Compound 64, (S)-5-[3-(5-Ethylamino-1,3,4-oxadiazol-2-yl)phenyl]-9-methylamino-1,2,3,3a,4,5-hexahydro-5,8,10,10b-tetraazabenzo[e]azulen-6-one] | ≥ 50 |
| CNc1ncc2c(n1)N1CCC[C@H]1CN(c1cccc(-c3nnc(NC(C)C)o3)c1)C2=O [Compound 65, (S)-5-[3-(5-Isopropylamino-1,3,4-oxadiazol-2-yl)phenyl]-9-methylamino-1,2,3,3a,4,5-hexahydro-5,8,10,10b-tetraazabenzo[e]azulen-6-one] | ≥ 50 |
| CCNc1ncc2c(n1)N1CCC[C@H]1CN(c1cccc(-c3nnc(SC)o3)c1)C2=O [Compound 66, (S)-9-Ethylamino-5-[3-(5-methylthio-1,3,4-oxadiazol-2-yl)phenyl]-1,2,3,3a,4,5-hexahydro-5,8,10,10b-tetraazabenzo[e]azulen-6-one] | ≥ 50 |
| CCNc1ncc2c(n1)N1CCC[C@H]1CN(c1cccc(-c3nnc(C)s3)c1)C2=O [Compound 67, (S)-9-Ethylamino-5-[3-(5-methyl-1,3,4-thiadiazol-2-yl)phenyl]-1,2,3,3a,4,5-hexahydro-5,8,10,10b-tetraazabenzo[e]azulen-6-one] | ≥ 50 |
| CNc1ncc2c(n1)N1CCC[C@H]1CN(c1cccc(-c3nnc(C)s3)c1)C2=O [Compound 68, (S)-5-[3-(5-Methyl-1,3,4-thiadiazol-2-yl)phenyl]-9-methylamino-1,2,3,3a,4,5-hexahydro-5,8,10,10b-tetraazabenzo[e]azulen-6-one] | ≥ 50 |
| CCc1nnc(-c2cccc(N3C[C@@H]4CCCN4c4nc(NC)ncc4C3=O)c2)s1 [Compound 69, (S)-5-[3-(5-Ethyl-1,3,4-thiadiazol-2-yl)phenyl]-9-methylamino-1,2,3,3a,4,5-hexahydro-5,8,10,10b-tetraazabenzo[e]azulen-6-one] | ≥ 50 |
| CNc1ncc2c(n1)N1CCC[C@H]1CN(c1cccc(-c3nnc(C4CC4)s3)c1)C2=O [Compound 70, (S)-5-[3-(5-Cyclopropyl-1,3,4-thiadiazol-2-yl)phenyl]-9-methylamino-1,2,3,3a,4,5-hexahydro-5,8,10,10b-tetraazabenzo[e]azulen-6-one] | ≥ 50 |
| CCNc1ncc2c(n1)N1CCC[C@H]1CN(c1cccc(-c3noc(CC)n3)c1)C2=O [Compound 71, (S)-5-[3-(5-Ethyl-1,2,4-oxadiazol-3-yl)phenyl]-9-ethylamino-1,2,3,3a,4,5-hexahydro-5,8,10,10b-tetraazabenzo[e]azulen-6-one] | ≥ 50 |
| CCNc1ncc2c(n1)N1CCC[C@H]1CN(c1cccc(-c3noc(C)n3)c1)C2=O [Compound 72, (S)-9-Ethylamino-5-[3-(5-methyl-1,2,4-oxadiazol-3-yl)phenyl]-1,2,3,3a,4,5-hexahydro-5,8,10,10b-tetraazabenzo[e]azulen-6-one] | ≥ 50 |
| Cc1nc(-c2cccc(N3C[C@@H]4CCCN4c4nc(N)ncc4C3=O)c2)no1 [Compound 73, (S)-9-Amino-5-[3-(5-methyl-1,2,4-oxadiazol-3-yl)phenyl]-1,2,3,3a,4,5-hexahydro-5,8,10,10b-tetraazabenzo[e]azulen-6-one] | ≥ 50 |
| CNc1ncc2c(n1)N1CCC[C@H]1CN(c1cccc(-c3noc(C)n3)c1)C2=O [Compound 74, (S)-5-[3-(5-Methyl-1,2,4-oxadiazol-3-yl)phenyl]-9-methylamino-1,2,3,3a,4,5-hexahydro-5,8,10,10b-tetraazabenzo[e]azulen-6-one] | ≥ 50 |
